The list shows a part of the results.
Compound: CC1=C(SC2=C1C(=N[C@H](C3=NN=C(N32)C)CC(=O)N)C4=CC=C(C=C4)Cl)C
Test: log2 fold change, soluble protein after heating vs DMSO (PISA); higher = thermal stabilisation; K562 cells, 10 uM, 30 min; active = over 0.2 and 3.5 SD of the protein, either way, in both replicates (recomputed)
Outline: (§1)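 Values are thermal stability changes relative to control samples and are taken from duplicates. They are stated as log2 fold changes. Before quantification by TMTpro 16plex LC-MS/MS with equalised channel sums, K562 cells at 2×10^6 cells/mL were treated with 10 μM compound for 30 min, heated in aliquots for 3 min across 48°C-58°C, pooled, extracted in PBS with 0.5% NP-40 at 4°C, and centrifuged at 21,000xg for 90 min to give the soluble supernatant.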

Chains of the proteins cited; added tags and fusions are not shown. Lines headed by an entry give the natural chain unless they say otherwise; changes in a name come on top.
UniProt P04792, whole entry, looked up: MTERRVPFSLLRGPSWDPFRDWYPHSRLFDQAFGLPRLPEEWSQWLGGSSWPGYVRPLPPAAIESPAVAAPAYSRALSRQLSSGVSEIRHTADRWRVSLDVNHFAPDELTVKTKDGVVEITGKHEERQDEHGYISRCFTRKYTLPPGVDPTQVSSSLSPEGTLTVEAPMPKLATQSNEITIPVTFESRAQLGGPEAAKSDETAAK
UniProt P17482: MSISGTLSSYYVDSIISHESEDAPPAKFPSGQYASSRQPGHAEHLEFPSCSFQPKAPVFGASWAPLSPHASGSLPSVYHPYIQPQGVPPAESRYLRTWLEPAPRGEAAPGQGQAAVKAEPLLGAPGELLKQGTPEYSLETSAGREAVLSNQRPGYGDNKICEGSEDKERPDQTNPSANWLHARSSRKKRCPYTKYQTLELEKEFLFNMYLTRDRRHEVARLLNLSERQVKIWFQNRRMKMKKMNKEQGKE
UniProt Q5SSJ5: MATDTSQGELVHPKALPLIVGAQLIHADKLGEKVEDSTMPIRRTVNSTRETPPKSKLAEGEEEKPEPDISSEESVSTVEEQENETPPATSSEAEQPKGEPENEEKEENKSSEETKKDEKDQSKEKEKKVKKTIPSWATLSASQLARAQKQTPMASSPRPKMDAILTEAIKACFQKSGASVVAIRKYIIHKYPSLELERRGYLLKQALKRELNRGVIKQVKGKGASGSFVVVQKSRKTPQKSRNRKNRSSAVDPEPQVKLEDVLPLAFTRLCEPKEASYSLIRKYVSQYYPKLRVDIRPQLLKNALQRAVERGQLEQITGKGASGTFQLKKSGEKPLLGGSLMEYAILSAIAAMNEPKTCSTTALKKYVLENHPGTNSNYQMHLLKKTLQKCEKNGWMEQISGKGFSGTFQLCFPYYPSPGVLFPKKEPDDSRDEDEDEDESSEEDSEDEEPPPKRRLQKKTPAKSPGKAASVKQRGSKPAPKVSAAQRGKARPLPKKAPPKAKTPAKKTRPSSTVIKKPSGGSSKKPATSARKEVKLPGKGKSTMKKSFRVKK
UniProt Q92902: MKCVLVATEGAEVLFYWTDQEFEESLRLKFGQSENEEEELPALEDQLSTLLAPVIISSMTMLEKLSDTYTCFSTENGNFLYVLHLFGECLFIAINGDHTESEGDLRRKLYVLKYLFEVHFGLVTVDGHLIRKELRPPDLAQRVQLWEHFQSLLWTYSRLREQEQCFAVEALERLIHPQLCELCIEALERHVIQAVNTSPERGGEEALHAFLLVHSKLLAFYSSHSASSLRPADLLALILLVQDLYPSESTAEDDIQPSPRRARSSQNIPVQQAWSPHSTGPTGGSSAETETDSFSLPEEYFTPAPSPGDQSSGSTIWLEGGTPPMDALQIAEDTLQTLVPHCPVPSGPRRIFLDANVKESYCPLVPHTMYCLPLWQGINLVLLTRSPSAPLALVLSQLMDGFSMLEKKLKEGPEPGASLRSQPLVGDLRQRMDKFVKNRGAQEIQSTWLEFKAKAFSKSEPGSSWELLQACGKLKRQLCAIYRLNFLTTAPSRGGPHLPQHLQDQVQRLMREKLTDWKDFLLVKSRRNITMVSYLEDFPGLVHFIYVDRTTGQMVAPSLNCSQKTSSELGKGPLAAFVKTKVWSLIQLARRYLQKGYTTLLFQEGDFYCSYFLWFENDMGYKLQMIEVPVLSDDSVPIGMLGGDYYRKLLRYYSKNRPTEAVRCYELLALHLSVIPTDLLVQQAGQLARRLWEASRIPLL
UniProt Q86YM7: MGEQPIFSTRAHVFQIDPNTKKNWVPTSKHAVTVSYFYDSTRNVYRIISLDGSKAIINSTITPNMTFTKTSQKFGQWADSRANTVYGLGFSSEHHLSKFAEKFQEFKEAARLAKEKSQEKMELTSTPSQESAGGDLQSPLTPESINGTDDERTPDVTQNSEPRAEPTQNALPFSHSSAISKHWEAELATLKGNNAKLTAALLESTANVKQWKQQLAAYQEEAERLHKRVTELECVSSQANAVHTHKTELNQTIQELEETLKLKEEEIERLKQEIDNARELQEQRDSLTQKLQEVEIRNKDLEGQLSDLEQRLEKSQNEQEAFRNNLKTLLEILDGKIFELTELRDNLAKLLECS
UniProt O75146: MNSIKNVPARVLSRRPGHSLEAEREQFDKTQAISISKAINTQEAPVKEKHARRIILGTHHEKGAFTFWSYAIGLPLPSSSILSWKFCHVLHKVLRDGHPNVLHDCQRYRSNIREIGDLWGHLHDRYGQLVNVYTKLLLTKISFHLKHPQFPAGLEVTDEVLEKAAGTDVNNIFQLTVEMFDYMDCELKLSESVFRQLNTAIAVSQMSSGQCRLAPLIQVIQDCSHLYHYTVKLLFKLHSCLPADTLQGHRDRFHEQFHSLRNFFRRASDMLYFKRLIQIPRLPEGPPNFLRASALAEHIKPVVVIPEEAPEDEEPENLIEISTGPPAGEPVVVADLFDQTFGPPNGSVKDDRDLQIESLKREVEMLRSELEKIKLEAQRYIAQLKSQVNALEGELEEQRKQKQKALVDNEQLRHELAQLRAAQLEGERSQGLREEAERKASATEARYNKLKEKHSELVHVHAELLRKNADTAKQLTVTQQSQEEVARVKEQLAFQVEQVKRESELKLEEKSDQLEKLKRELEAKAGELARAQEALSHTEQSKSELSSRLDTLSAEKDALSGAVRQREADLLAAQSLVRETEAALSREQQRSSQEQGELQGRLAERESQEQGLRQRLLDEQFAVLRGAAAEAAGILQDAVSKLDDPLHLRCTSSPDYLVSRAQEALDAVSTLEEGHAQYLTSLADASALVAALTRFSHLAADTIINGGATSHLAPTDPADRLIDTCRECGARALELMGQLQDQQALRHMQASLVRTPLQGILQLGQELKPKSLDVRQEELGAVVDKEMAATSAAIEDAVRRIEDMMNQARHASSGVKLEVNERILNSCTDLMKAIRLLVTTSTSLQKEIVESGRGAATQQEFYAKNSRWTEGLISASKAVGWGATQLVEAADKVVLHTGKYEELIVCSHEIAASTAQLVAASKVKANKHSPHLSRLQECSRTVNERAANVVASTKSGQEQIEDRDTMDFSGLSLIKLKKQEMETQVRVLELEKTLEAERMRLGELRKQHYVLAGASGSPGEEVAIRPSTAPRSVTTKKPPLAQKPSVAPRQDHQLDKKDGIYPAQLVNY
UniProt Q1KMD3: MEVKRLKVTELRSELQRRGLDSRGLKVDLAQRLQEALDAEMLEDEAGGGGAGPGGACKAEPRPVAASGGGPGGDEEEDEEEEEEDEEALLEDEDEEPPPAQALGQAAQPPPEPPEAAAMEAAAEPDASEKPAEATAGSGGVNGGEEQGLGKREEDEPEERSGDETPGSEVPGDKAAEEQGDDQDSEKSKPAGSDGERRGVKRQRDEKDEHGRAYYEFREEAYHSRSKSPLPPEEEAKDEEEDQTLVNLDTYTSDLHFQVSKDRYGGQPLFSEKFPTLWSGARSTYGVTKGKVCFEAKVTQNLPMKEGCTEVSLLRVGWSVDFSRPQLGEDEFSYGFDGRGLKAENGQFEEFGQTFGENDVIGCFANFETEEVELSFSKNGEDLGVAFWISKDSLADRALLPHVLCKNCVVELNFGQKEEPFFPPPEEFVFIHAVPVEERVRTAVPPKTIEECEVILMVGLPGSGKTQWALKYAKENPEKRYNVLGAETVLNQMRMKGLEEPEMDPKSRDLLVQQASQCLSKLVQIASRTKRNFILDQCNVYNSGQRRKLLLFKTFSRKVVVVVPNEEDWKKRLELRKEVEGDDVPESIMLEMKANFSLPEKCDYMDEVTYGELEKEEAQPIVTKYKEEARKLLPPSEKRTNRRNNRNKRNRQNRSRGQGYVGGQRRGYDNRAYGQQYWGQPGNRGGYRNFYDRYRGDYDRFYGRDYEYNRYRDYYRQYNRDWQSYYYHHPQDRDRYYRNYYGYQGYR
UniProt O95757: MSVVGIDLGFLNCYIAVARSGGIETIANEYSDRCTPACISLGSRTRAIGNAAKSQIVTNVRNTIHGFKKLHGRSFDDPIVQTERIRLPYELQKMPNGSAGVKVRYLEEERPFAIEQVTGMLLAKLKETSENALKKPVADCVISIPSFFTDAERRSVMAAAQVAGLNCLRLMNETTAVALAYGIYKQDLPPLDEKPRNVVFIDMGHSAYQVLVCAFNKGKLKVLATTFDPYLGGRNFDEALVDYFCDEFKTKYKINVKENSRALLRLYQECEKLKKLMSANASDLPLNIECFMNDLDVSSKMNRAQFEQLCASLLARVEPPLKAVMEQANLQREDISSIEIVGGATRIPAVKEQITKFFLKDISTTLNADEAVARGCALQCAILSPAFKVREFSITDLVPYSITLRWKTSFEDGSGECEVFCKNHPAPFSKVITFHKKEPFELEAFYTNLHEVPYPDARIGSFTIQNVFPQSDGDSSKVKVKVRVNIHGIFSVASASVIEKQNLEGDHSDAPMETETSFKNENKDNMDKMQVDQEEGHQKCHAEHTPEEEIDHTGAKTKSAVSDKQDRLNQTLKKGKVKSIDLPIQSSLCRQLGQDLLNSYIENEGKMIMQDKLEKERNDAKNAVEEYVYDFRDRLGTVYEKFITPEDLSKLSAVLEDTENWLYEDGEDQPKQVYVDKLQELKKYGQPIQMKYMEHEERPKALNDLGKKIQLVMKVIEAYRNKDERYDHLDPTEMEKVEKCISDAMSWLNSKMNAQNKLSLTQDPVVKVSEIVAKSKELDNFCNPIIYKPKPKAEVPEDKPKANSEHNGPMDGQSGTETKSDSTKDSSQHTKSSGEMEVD
UniProt P09429: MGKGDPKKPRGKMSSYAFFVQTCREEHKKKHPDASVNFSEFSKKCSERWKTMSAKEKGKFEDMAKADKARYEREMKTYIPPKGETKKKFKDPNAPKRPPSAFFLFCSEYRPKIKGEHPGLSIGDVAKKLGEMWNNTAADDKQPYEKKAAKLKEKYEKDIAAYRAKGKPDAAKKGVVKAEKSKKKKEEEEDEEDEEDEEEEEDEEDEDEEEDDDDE
UniProt Q53FT3: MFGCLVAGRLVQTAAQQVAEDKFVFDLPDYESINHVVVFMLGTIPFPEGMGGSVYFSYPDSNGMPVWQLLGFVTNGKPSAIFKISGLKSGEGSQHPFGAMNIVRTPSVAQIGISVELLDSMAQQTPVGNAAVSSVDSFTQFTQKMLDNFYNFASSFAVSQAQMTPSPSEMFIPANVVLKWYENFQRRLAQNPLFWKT
UniProt P61604, whole entry, looked up: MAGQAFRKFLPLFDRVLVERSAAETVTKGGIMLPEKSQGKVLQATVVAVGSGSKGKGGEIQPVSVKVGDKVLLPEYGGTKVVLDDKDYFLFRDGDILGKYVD
UniProt Q9NQE9: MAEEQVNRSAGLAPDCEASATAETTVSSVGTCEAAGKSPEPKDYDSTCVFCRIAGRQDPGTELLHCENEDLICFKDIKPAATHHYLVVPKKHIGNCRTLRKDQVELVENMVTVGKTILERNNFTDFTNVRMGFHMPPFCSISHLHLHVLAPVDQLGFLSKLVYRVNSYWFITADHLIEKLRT
UniProt Q15651: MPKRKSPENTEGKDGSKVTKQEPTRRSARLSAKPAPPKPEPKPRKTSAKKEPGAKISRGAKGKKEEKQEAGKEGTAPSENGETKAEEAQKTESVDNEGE
UniProt Q01581: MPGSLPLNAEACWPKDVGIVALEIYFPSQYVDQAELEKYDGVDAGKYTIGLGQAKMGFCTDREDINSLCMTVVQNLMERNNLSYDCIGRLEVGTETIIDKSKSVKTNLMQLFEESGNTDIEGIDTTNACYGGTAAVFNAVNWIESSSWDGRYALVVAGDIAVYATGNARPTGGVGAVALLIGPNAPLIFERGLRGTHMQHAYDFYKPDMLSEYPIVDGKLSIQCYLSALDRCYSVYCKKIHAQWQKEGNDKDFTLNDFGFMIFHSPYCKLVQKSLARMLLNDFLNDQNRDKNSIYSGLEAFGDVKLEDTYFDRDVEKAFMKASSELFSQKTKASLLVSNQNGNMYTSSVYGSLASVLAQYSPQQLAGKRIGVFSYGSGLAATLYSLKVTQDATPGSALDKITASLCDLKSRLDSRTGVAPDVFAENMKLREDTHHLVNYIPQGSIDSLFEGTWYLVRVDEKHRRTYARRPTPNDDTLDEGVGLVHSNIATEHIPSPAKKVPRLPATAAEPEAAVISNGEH
UniProt P05114: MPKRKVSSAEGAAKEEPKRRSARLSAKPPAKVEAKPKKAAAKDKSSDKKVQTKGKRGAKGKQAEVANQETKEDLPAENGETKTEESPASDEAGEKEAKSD
UniProt O43464: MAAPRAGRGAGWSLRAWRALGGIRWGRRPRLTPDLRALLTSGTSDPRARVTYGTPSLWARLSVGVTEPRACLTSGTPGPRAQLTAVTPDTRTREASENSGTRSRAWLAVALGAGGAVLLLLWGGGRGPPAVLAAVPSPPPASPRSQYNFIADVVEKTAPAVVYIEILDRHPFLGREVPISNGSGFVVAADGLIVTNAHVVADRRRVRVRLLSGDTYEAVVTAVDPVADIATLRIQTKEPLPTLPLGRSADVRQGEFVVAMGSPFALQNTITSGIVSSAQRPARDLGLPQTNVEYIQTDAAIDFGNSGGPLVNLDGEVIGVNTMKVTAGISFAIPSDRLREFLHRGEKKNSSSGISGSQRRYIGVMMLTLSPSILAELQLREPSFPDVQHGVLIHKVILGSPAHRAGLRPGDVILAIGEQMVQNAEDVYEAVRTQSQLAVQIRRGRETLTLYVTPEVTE

Row | Target | log2 fold change
1 | HSPB1 (UniProt P04792) | inactive: -0.004
2 | HNRNPK isoform 2 (UniProt P61978) | inactive: 0.012
3 | HOXB9 (UniProt P17482) | inactive: 0.127
4 | HP1BP3 (UniProt Q5SSJ5) | inactive: -0.04
5 | HPS1 (UniProt Q92902) | inactive: 0.078
6 | HSP90AA1 isoform 2 (UniProt P07900) | inactive: 0.04
7 | HOMER1 (UniProt Q86YM7) | inactive: 0.035
8 | HNRNPA3 (UniProt P51991) | inactive: -0.378
9 | HIP1R (UniProt O75146) | inactive: 0.061
10 | HIP1 (UniProt O00291) | inactive: -0.009

Compound: CC1=C2C(=CC=C1)N=C(N(C2=O)C3=CC=CC=C3C)CN4C=NC5=C(N=CN=C54)N
Test: as above
Outline: as §1

Row | Target | log2 fold change
11 | HMBS (UniProt F5H226) | inactive: 0.343
12 | HUWE1 (UniProt Q7Z6Z7) | inactive: 0.041
13 | HNRNPUL2 (UniProt Q1KMD3) | inactive: -0.041
14 | HSPA4L (UniProt O95757) | inactive: 0.034
15 | HMGB1 (UniProt P09429) | inactive: -0.004
16 | HIKESHI (UniProt Q53FT3) | inactive: 0.149
17 | HSPE1 (UniProt P61604) | inactive: 0.076
18 | HINT3 (UniProt Q9NQE9) | inactive: 0.008
19 | HMGN3 (UniProt Q15651) | inactive: -0.093
20 | HIST2H2BF isoform 2 (UniProt Q5QNW6) | inactive: -0.29
21 | HMGCS1 (UniProt Q01581) | inactive: 0.006
22 | HMGN1 (UniProt P05114) | inactive: -0.119
23 | HTRA2 (UniProt O43464) | inactive: 0.05

2 entries picked at random from those above:
Row | Target | log2 fold change
23 | HTRA2 (UniProt O43464) | inactive: 0.05
15 | HMGB1 (UniProt P09429) | inactive: -0.004
